Measurements from patent US5473054A, “IGF-1 analogs” (Thomas Jefferson University, priority 1994, dated 1995).
At least one peptide structure holds a part that was inferred or is arguable (an end, a ring closure or a residue). Bridge positions count the residues as written; N and C are the ends. Peptide text beside a SMILES is read from it.

System: cells in culture
Assay: Growth, toxicity and reversibility in cells in culture (summary statements)
Type: cell-based

## CC(C)C[C@@H]1NC(=O)[C@@H]2CCCN2C(=O)[C@H](C)NC(=O)[C@H](C)NC(=O)[C@H](Cc2ccc(O)cc2)NC(=O)[C@@H](N)CSSC[C@@H](C(=O)O)NC(=O)[C@H](CO)NC(=O)[C@H](CCCCN)NC(=O)[C@H](C)NC(=O)[C@@H]2CCCN2C(=O)[C@H](CCCCN)NC1=O [JB1, Cys Tyr Ala Ala Pro Leu Lys Pro Ala Lys Ser Cys] (H-CYAAPLKPAKSC-OH; disulfide 1-12)
  inhibitory effect on the growth of cells in culture: profound inhibitory effect
  reversibility of the inhibitory effect: reversible
